Test results from the supplement of paper PMC12823440, “Inhibitors supercharge kinase turnover through native proteolytic circuits” (Nature, 2025).
Where a name gives a salt, the structure may show the parent alone. The list shows a part of the results. Hit calls seldom repeat between salt and free forms of one compound.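 Kinases were expressed as nanoluciferase fusions in K562 cells and luminescence was read every 4 h between 2 and 18 h as percent of control, DMSO set to 100% and a positive control to 0%. A time point counts as decreased when the signal drops significantly (2 sigma). The hit call is the authors' own, does not follow from the count of time points alone, and its rule is not shown.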

The chains behind the UniProt entries cited, without tags or fusion partners. Where a name states a change or a piece, a line headed by the entry shows the natural chain unless it says otherwise.
UniProt P31749: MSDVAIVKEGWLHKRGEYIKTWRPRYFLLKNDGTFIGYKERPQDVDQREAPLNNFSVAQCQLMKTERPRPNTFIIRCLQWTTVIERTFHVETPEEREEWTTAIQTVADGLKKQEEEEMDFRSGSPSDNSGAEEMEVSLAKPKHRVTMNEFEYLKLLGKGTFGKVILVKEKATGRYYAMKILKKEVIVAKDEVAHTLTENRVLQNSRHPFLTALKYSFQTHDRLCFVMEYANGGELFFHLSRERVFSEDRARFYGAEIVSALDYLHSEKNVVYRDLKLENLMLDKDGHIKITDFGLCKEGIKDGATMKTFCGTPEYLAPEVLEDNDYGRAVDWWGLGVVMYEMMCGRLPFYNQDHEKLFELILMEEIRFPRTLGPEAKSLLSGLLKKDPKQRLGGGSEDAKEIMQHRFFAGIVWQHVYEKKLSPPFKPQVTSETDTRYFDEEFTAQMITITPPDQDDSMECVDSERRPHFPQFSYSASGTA
UniProt Q9UM73: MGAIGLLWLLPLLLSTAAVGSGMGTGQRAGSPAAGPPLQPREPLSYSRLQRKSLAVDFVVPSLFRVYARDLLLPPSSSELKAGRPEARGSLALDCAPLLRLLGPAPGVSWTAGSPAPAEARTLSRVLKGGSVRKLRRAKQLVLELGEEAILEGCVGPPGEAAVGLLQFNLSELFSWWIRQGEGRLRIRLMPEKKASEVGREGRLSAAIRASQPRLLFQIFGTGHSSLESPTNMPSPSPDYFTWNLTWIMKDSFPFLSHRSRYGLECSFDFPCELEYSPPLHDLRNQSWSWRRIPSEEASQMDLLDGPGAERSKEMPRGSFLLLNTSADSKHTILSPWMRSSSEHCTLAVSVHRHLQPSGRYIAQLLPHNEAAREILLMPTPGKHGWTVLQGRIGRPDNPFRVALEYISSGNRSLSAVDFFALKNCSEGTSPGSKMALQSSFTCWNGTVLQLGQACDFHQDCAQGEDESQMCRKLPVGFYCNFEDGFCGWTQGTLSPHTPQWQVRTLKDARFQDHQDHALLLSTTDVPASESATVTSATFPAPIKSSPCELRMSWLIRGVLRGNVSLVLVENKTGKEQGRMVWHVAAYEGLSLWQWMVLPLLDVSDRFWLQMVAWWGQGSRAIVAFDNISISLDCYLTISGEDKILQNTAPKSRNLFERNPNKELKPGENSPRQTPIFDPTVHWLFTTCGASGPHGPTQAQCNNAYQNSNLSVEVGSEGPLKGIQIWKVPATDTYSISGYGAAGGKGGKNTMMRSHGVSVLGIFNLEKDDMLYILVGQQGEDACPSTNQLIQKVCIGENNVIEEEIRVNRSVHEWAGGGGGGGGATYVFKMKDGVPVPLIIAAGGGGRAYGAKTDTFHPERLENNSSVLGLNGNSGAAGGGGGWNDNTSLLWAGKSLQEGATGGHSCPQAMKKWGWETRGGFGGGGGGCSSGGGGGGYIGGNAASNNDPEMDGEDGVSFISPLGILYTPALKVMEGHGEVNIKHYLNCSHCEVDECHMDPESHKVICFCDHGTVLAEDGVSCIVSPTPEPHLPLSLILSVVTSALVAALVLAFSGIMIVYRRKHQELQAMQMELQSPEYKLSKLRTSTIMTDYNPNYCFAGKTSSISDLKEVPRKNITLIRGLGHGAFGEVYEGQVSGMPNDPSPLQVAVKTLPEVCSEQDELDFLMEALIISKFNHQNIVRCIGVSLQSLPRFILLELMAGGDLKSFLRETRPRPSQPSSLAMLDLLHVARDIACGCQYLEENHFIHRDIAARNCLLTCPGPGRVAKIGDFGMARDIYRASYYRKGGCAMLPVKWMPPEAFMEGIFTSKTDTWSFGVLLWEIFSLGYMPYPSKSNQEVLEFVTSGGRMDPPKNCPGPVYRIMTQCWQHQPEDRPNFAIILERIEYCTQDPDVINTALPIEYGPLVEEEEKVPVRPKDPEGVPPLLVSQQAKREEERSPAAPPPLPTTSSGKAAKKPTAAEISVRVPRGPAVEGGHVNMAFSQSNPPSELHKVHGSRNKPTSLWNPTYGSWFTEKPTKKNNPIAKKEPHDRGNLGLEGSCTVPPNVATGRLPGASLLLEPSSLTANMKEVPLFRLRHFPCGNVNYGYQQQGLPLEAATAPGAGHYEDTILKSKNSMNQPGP
UniProt Q96GD4, whole entry: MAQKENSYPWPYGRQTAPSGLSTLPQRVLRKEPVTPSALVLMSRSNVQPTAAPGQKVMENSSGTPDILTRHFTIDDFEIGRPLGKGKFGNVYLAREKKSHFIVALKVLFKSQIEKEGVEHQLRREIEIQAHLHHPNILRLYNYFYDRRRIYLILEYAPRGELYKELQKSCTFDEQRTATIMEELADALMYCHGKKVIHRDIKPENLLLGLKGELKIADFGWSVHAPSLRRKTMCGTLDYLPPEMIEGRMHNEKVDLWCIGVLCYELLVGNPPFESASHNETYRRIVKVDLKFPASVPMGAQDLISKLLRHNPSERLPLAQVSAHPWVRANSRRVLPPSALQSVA
UniProt P51451: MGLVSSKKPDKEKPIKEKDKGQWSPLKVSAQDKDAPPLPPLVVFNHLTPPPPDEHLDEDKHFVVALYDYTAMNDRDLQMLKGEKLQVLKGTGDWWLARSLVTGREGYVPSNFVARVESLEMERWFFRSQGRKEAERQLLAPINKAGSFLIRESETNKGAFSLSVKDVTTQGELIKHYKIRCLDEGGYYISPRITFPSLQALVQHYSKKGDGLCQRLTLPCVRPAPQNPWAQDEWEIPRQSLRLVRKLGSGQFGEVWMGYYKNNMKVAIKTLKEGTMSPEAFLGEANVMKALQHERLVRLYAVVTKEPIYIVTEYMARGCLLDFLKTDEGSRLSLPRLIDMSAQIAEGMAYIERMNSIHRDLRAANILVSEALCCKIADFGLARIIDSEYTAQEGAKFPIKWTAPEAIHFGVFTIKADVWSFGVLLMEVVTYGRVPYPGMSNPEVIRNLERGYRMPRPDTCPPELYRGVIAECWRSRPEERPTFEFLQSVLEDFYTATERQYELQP
UniProt P51813: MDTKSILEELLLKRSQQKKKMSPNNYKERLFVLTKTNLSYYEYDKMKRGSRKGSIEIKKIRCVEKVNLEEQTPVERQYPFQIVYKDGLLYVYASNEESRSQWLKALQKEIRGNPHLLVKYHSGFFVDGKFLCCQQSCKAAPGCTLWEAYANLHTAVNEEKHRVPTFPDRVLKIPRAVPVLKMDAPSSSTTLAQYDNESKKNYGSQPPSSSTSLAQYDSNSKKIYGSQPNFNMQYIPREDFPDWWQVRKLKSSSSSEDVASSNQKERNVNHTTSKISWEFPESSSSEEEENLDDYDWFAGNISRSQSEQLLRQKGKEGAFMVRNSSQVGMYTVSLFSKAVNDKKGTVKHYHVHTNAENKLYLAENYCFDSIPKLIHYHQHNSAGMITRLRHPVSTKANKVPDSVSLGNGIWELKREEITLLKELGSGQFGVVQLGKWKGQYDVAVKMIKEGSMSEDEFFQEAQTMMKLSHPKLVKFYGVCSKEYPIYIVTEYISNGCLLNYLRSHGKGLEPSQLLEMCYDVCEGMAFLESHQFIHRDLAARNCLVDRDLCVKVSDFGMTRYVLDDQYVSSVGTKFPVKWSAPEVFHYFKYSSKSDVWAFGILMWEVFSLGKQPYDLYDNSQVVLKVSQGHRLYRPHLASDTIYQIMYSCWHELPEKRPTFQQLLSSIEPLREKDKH
UniProt Q06187: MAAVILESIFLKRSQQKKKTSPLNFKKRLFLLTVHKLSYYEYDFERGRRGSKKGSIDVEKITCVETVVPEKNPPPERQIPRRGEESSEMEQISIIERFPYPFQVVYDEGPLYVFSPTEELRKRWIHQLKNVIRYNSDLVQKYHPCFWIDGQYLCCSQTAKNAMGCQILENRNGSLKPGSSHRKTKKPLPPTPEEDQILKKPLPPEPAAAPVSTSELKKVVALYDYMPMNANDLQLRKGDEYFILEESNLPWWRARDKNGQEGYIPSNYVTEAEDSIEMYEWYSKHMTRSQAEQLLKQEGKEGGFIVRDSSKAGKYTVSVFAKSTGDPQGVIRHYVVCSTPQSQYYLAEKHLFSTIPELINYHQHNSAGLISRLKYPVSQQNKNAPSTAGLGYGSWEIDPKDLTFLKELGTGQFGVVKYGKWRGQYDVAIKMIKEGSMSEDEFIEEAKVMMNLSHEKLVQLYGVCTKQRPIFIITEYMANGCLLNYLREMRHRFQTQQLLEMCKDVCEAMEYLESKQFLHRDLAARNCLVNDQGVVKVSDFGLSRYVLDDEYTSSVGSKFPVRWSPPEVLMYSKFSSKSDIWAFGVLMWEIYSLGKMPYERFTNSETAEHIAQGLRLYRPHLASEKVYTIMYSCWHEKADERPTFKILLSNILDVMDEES
UniProt Q9UQM7, whole entry: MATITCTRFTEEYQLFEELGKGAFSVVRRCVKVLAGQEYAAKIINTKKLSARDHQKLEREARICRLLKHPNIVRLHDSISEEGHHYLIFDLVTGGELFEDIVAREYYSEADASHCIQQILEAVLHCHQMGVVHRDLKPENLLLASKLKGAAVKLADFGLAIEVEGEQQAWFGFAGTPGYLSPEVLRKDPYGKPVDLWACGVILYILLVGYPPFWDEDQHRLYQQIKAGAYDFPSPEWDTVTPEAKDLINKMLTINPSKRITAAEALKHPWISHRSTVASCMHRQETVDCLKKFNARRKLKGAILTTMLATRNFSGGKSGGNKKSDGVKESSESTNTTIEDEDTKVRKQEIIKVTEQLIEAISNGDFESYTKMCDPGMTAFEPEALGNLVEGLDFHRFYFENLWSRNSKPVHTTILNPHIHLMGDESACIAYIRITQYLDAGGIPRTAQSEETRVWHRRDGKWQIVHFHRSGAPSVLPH
UniProt Q13555: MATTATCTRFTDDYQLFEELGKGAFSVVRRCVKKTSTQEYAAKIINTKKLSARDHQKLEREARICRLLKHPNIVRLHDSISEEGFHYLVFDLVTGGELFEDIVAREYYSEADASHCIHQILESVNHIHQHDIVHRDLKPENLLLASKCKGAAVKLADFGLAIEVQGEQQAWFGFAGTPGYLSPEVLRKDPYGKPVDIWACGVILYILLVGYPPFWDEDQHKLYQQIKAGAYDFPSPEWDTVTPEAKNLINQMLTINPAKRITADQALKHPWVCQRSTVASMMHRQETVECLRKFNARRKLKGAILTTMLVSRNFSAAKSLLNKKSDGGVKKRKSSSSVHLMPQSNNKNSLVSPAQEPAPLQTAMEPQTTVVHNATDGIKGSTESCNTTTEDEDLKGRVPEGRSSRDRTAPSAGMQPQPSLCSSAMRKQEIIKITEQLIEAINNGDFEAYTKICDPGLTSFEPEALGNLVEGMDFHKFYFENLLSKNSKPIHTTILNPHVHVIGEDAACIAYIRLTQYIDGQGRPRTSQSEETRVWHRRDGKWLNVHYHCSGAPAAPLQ
UniProt Q15131: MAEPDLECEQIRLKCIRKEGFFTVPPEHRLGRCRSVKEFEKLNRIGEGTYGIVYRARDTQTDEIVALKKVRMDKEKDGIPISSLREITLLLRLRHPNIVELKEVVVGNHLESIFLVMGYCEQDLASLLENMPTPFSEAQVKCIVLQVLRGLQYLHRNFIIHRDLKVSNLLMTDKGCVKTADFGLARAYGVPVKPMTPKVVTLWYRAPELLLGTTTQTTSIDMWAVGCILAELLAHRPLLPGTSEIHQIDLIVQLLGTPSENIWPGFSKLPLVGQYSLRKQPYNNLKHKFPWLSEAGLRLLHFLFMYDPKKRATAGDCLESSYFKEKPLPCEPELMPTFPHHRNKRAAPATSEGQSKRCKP
UniProt Q00526: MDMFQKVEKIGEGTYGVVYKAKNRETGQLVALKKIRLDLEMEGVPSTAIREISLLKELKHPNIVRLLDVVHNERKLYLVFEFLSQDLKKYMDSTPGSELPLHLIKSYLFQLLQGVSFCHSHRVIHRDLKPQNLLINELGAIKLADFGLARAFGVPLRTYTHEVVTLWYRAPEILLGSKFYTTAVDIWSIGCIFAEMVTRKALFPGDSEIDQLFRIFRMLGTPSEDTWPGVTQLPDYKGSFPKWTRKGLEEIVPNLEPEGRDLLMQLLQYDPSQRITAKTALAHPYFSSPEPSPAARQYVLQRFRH
UniProt Q00534, whole entry: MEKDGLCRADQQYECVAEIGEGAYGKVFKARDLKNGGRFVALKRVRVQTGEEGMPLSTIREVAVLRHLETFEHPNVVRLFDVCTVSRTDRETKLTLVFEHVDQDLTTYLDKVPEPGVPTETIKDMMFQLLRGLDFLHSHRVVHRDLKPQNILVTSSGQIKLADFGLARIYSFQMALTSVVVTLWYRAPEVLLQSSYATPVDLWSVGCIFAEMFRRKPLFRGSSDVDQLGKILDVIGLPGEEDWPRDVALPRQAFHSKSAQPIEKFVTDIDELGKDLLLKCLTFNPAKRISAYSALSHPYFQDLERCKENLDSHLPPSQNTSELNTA

Legend:
Assay in all cases: kinase-Nluc reporter destabilization hit call (1 = scored as downregulated) (binary); higher = compound decreases kinase abundance
Conditions in all cases: K562; 2-18 h
ABL1 = ABL1 (UniProt P00519)
AKT1 = AKT1 (UniProt P31749)
ALK = ALK (UniProt Q9UM73)
ARAF = ARAF (UniProt P10398)
AURKA = AURKA (UniProt O14965)
AURKB = AURKB (UniProt Q96GD4)
AURKC = AURKC (UniProt Q9UQB9)
BLK = BLK (UniProt P51451)
BMX = BMX (UniProt P51813)
BRAF = BRAF (UniProt P15056)
BRAF_V600E = test system: BRAF_V600E
BTK = BTK (UniProt Q06187)
CAMK2A = CAMK2A (UniProt Q9UQM7)
CAMK2G = CAMK2G (UniProt Q13555)
CDK10 = CDK10 (UniProt Q15131)
CDK2 = CDK2 (UniProt P24941)
CDK3 = CDK3 (UniProt Q00526)
CDK4 = CDK4 (UniProt P11802)
CDK5 = CDK5 (UniProt Q00535)
CDK6 = CDK6 (UniProt Q00534)

Measured: kinase-Nluc reporter destabilization hit call

C=CC(=O)N[C@H]1CCOC[C@H]1Nc1ncc2cc(-c3c(Cl)c(OC)cc(OC)c3Cl)ccc2n1 [Fisogatinib] (10 µM)
inactive: ABL1 = 0 | AKT1 = 0 | ALK 0 | ARAF 0 | AURKA 0 | AURKB 0 | AURKC 0 | BLK 0 | BMX 0 | BRAF 0 | BRAF_V600E 0 | BTK 0 | CAMK2A 0 | CAMK2G 0 | CDK10 = 0 | CDK2 = 0 | CDK3 = 0 | CDK4 = 0 | CDK5 = 0 | CDK6 = 0

C=CCN(/C=C1/C(=O)O[C@H](COC)[C@@]2(C)C1=C(O)C(=O)C1=C2[C@H](OC(C)=O)C[C@]2(C)C(=O)CC[C@@H]12)CC=C [Sonolisib] (2.5 µM)
inactive: ABL1 = 0 | AKT1 = 0 | ALK 0 | ARAF 0 | AURKA 0 | AURKB 0 | AURKC 0 | BLK 0 | BMX 0 | BRAF 0 | BRAF_V600E 0 | BTK 0 | CAMK2A 0 | CAMK2G 0 | CDK10 = 0 | CDK2 = 0 | CDK3 = 0 | CDK4 = 0 | CDK5 = 0 | CDK6 = 0

CNCCOc1ccccc1C(C)(C)Nc1nccn(-c2cc(C(=O)NC3CC3)ccc2C)c1=O [p38α inhibitor 2] (10 µM)
inactive: ABL1 = 0 | AKT1 = 0 | ALK 0 | ARAF 0 | AURKA 0 | AURKB 0 | AURKC 0 | BLK 0 | BMX 0 | BRAF 0 | BRAF_V600E 0 | BTK 0 | CAMK2A 0 | CAMK2G 0 | CDK10 = 0 | CDK2 = 0 | CDK3 = 0 | CDK4 = 0 | CDK5 = 0 | CDK6 = 0

CCCCNc1ncc2c(-c3ccc(CN4CCN(C)CC4)cc3)cn([C@H]3CC[C@H](O)CC3)c2n1 [UNC2025 (hydrochloride)] (2.5 µM)
inactive: ABL1 = 0 | AKT1 = 0 | ALK 0 | ARAF 0 | AURKA 0 | AURKB 0 | AURKC 0 | BLK 0 | BMX 0 | BRAF 0 | BRAF_V600E 0 | BTK 0 | CAMK2A 0 | CAMK2G 0 | CDK10 = 0 | CDK2 = 0 | CDK3 = 0 | CDK4 = 0 | CDK5 = 0 | CDK6 = 0

CN(C/C=C/C(=O)Nc1ccc(C(=O)Nc2cccc(Nc3ncc(Cl)c(-c4c[nH]c5ccccc45)n3)c2)cc1)CCCNC(=O)NCCOCCOCCOCCNC(=O)CCCC[C@@H]1SC[C@@H]2NC(=O)N[C@@H]21 (2.5 µM)
inactive: ABL1 = 0 | AKT1 = 0 | ALK 0 | ARAF 0 | AURKA 0 | AURKB 0 | AURKC 0 | BLK 0 | BMX 0 | BRAF 0 | BRAF_V600E 0 | BTK 0 | CAMK2A 0 | CAMK2G 0 | CDK10 = 0 | CDK2 = 0 | CDK3 = 0 | CDK4 = 0 | CDK5 = 0 | CDK6 = 0

CNC[C@@H](NC(=O)c1ccc(-c2nc([C@H]3CC[C@H](O)[C@@H](F)C3)cnc2N)cc1F)c1cc(F)cc(Br)c1 [Rineterkib] (10 µM)
inactive: ABL1 = 0 | AKT1 = 0 | ALK 0 | ARAF 0 | AURKA 0 | AURKB 0 | AURKC 0 | BLK 0 | BMX 0 | BRAF 0 | BRAF_V600E 0 | BTK 0 | CAMK2A 0 | CAMK2G 0 | CDK10 = 0 | CDK2 = 0 | CDK3 = 0 | CDK4 = 0 | CDK5 = 0 | CDK6 = 0

O=C(N=c1sccn1Cc1ccccc1)c1c[nH]c2ncccc12 (10 µM)
inactive: ABL1 = 0 | AKT1 = 0 | ALK 0 | ARAF 0 | AURKA 0 | AURKB 0 | AURKC 0 | BLK 0 | BMX 0 | BRAF 0 | BRAF_V600E 0 | BTK 0 | CAMK2A 0 | CAMK2G 0 | CDK10 = 0 | CDK2 = 0 | CDK3 = 0 | CDK4 = 0 | CDK5 = 0 | CDK6 = 0

CN1CCN(c2ccc(NC(=O)c3ccc(C#N)o3)c(N3CCCCC3)c2)CC1 (10 µM)
inactive: ABL1 = 0 | AKT1 = 0 | ALK 0 | ARAF 0 | AURKA 0 | AURKB 0 | AURKC 0 | BLK 0 | BMX 0 | BRAF 0 | BRAF_V600E 0 | BTK 0 | CAMK2A 0 | CAMK2G 0 | CDK10 = 0 | CDK2 = 0 | CDK3 = 0 | CDK4 = 0 | CDK5 = 0 | CDK6 = 0

O=c1sn(-c2cccc3ccccc23)c(=O)n1Cc1ccccc1 [Tideglusib] (10 µM)
inactive: ABL1 = 0 | AKT1 = 0 | ALK 0 | ARAF 0 | AURKA 0 | AURKB 0 | AURKC 0 | BLK 0 | BMX 0 | BRAF 0 | BRAF_V600E 0 | BTK 0 | CAMK2A 0 | CAMK2G 0 | CDK10 = 0 | CDK2 = 0 | CDK3 = 0 | CDK4 = 0 | CDK5 = 0 | CDK6 = 0

CC(C)n1nc(C#Cc2ccccc2)c2c(N)ncnc21 (10 µM)
inactive: ABL1 = 0 | AKT1 = 0 | ALK 0 | ARAF 0 | AURKA 0 | AURKB 0 | AURKC 0 | BLK 0 | BMX 0 | BRAF 0 | BRAF_V600E 0 | BTK 0 | CAMK2A 0 | CAMK2G 0 | CDK10 = 0 | CDK2 = 0 | CDK3 = 0 | CDK4 = 0 | CDK5 = 0 | CDK6 = 0

Cc1cc(F)c(Nc2ncnc3cc(OCc4ccccc4)ccc23)cc1O (10 µM)
inactive: ABL1 = 0 | AKT1 = 0 | ALK 0 | ARAF 0 | AURKA 0 | AURKB 0 | AURKC 0 | BLK 0 | BMX 0 | BRAF 0 | BRAF_V600E 0 | BTK 0 | CAMK2A 0 | CAMK2G 0 | CDK10 = 0 | CDK2 = 0 | CDK3 = 0 | CDK4 = 0 | CDK5 = 0 | CDK6 = 0

COc1ccc2c(c1)C[C@H](C(=O)Nc1ccc(-c3cn[nH]c3)cc1OCCN(C)C)CO2 [Chroman 1] (10 µM)
inactive: ABL1 = 0 | AKT1 = 0 | ALK 0 | ARAF 0 | AURKA 0 | AURKB 0 | AURKC 0 | BLK 0 | BMX 0 | BRAF 0 | BRAF_V600E 0 | BTK 0 | CAMK2A 0 | CAMK2G 0 | CDK10 = 0 | CDK2 = 0 | CDK3 = 0 | CDK4 = 0 | CDK5 = 0 | CDK6 = 0

O=C(Nc1ncc(SCCN2CCCC2)s1)[C@]1(c2ccc(S(=O)(=O)C3CC3)cc2)C[C@H]1C1CCCCC1 [Globalagliatin] (2.5 µM)
inactive: ABL1 = 0 | AKT1 = 0 | ALK 0 | ARAF 0 | AURKA 0 | AURKB 0 | AURKC 0 | BLK 0 | BMX 0 | BRAF 0 | BRAF_V600E 0 | BTK 0 | CAMK2A 0 | CAMK2G 0 | CDK10 = 0 | CDK2 = 0 | CDK3 = 0 | CDK4 = 0 | CDK5 = 0 | CDK6 = 0

O=C(O)[C@]1(Cc2cccc(Nc3nccs3)n2)CC[C@@H](Oc2cccc(Cl)c2F)CC1 (2.5 µM)
inactive: ABL1 = 0 | AKT1 = 0 | ALK 0 | ARAF 0 | AURKA 0 | AURKB 0 | AURKC 0 | BLK 0 | BMX 0 | BRAF 0 | BRAF_V600E 0 | BTK 0 | CAMK2A 0 | CAMK2G 0 | CDK10 = 0 | CDK2 = 0 | CDK3 = 0 | CDK4 = 0 | CDK5 = 0 | CDK6 = 0

C[C@@H]1O[C@@H](O[C@H]2[C@H](OC(=O)[C@]34CCC(C)(C)C[C@H]3C3=CC[C@@H]5[C@@]6(C)C[C@H](O)[C@H](O[C@@H]7O[C@H](CO)[C@@H](O)[C@H](O)[C@H]7O)C(CO)(CO)[C@@H]6CC[C@@]5(C)[C@]3(C)C[C@H]4O)OC[C@H](O)[C@@H]2O)[C@H](O)[C@H](O)[C@H]1O[C@@H]1OC[C@@H](O)[C@H](O[C@@H]2OC[C@](O)(CO)[C@H]2O)[C@H]1O [Platycodin D] (10 µM)
inactive: ABL1 = 0 | AKT1 = 0 | ALK 0 | ARAF 0 | AURKA 0 | AURKB 0 | AURKC 0 | BLK 0 | BMX 0 | BRAF 0 | BRAF_V600E 0 | BTK 0 | CAMK2A 0 | CAMK2G 0 | CDK10 = 0 | CDK2 = 0 | CDK3 = 0 | CDK4 = 0 | CDK5 = 0 | CDK6 = 0

O=C1NC(=O)C(c2ccccc2[N+](=O)[O-])=C1Nc1ccc(O)c(Cl)c1 (10 µM)
inactive: ABL1 = 0 | AKT1 = 0 | ALK 0 | ARAF 0 | AURKA 0 | AURKB 0 | AURKC 0 | BLK 0 | BMX 0 | BRAF 0 | BRAF_V600E 0 | BTK 0 | CAMK2A 0 | CAMK2G 0 | CDK10 = 0 | CDK2 = 0 | CDK3 = 0 | CDK4 = 0 | CDK5 = 0 | CDK6 = 0

2 successive records from above:
C[C@@H]1O[C@@H](O[C@H]2[C@H](OC(=O)[C@]34CCC(C)(C)C[C@H]3C3=CC[C@@H]5[C@@]6(C)C[C@H](O)[C@H](O[C@@H]7O[C@H](CO)[C@@H](O)[C@H](O)[C@H]7O)C(CO)(CO)[C@@H]6CC[C@@]5(C)[C@]3(C)C[C@H]4O)OC[C@H](O)[C@@H]2O)[C@H](O)[C@H](O)[C@H]1O[C@@H]1OC[C@@H](O)[C@H](O[C@@H]2OC[C@](O)(CO)[C@H]2O)[C@H]1O [Platycodin D] (10 µM)
inactive: ABL1 = 0 | AKT1 = 0 | ALK 0 | ARAF 0 | AURKA 0 | AURKB 0 | AURKC 0 | BLK 0 | BMX 0 | BRAF 0 | BRAF_V600E 0 | BTK 0 | CAMK2A 0 | CAMK2G 0 | CDK10 = 0 | CDK2 = 0 | CDK3 = 0 | CDK4 = 0 | CDK5 = 0 | CDK6 = 0

O=C1NC(=O)C(c2ccccc2[N+](=O)[O-])=C1Nc1ccc(O)c(Cl)c1 (10 µM)
inactive: ABL1 = 0 | AKT1 = 0 | ALK 0 | ARAF 0 | AURKA 0 | AURKB 0 | AURKC 0 | BLK 0 | BMX 0 | BRAF 0 | BRAF_V600E 0 | BTK 0 | CAMK2A 0 | CAMK2G 0 | CDK10 = 0 | CDK2 = 0 | CDK3 = 0 | CDK4 = 0 | CDK5 = 0 | CDK6 = 0
